# Laboratory results: PubChem BioAssay AID686938 (Drosophila RNAi Screening Center, 2013)
# Test: 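Fly genes required for calcium entry once internal stores are emptied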 (primary screen)
# System: Drosophila S2R+ cells
# Reagent: long dsRNA against Drosophila genes, about 0.25 µg dsRNA per well, roughly 10,000 cells
# Time to read-out: 5 days of knock-down before the calcium assay
# Conditions: thapsigargin (SERCA pump blocker) to empty calcium stores; entry signal taken 4 min after adding it
# Measured: 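Per-well fluo-4 fluorescence in two replicates, unnormalised, measured in resting cells and 4 min after store depletion by the SERCA blocker thapsigargin; ratio of the two present in few wells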
# Reading the numbers: calcium entry signal: higher = stronger calcium signal after store depletion; entry to resting ratio: higher = more calcium entry relative to resting level; resting calcium signal: higher = higher resting calcium signal
# Hit rule: 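Called when the plate z-score of the entry-to-rest ratio, mean of duplicates, falls below −3; wells with low overall dye signal (Fmax z below −2) or more than five off-targets excluded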
# Meaning of the calls: active = strongly reduced calcium entry; inactive = no strong reduction
# The deposit covers about 23,000 reagents; shown is an unselected part of those that have a named target and a result. In the full data, 75 (0.33%) were called active. 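Raw plate signals without normalisation; calls rest on plate z-scores that were not deposited; ratio present for only 364 wells.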 The numbers tell different reagents against one gene apart. A plus sign joins genes that one reagent is predicted to hit. The record does not give: the dose of the treatment.
target gene,dsRNA no.,"calcium entry signal, replicate 1 (fluorescence units)","calcium entry signal, replicate 2 (fluorescence units)",entry to resting ratio,"resting calcium signal, replicate 1 (fluorescence units)","resting calcium signal, replicate 2 (fluorescence units)",Call
TotE,1,3.54e7,3.39e7,,1.90e7,1.67e7,inactive
CG9500,1,3.87e7,3.97e7,,2.07e7,1.82e7,inactive
Ref2,1,4.40e7,3.04e7,,1.98e7,1.50e7,inactive
INPP5E,1,2.79e7,5.10e7,,1.55e7,2.22e7,inactive
hpRNA:CR32205,1,3.45e7,4.55e7,,1.77e7,2.09e7,inactive
hpRNA:CR32205,2,2.41e7,3.86e7,,1.14e7,1.70e7,inactive
CG5339,1,3.18e7,,,1.59e7,,inactive
RpS30,1,9.89e6,1.14e7,,8.03e6,8.44e6,inactive
TTLL1B,1,2.58e7,3.21e7,,1.28e7,1.50e7,inactive
CG31269,1,3.76e7,4.88e7,,1.78e7,5.85e7,inactive
CG32176,1,5.69e7,7.72e7,,2.37e7,2.95e7,inactive
CG32176,2,5.28e7,6.58e7,,2.20e7,2.93e7,inactive
CG15357,1,2.69e7,2.75e7,,1.33e7,1.31e7,inactive
CG10376,1,4.06e7,,,1.95e7,,inactive
GABA-B-R1,1,3.32e7,5.15e7,,1.63e7,2.53e7,inactive
Gbp3,1,6.06e7,7.16e7,,2.73e7,2.90e7,inactive
RpL19,1,6.46e6,,,5.77e6,,inactive
CG14182,1,3.35e7,5.28e7,,1.68e7,2.30e7,inactive
Prosbeta4,1,2.17e7,1.22e7,,1.45e7,8.77e6,inactive
CG8850,1,2.90e7,3.46e7,,1.49e7,1.45e7,inactive
CG14147,1,2.65e7,2.95e7,,1.34e7,1.29e7,inactive
CG14545,1,3.83e7,7.13e7,,1.85e7,2.95e7,inactive
her,1,5.27e7,,,2.83e7,,inactive
CG9391,1,2.12e7,3.25e7,,1.14e7,1.49e7,inactive
gw,1,3.64e7,3.88e7,,1.77e7,1.68e7,inactive
gw,2,3.14e7,4.02e7,2,1.59e7,1.92e7,inactive
CG9896,1,3.16e7,8.47e7,,1.42e7,3.50e7,inactive
CG9896,2,4.70e7,5.24e7,,2.40e7,2.44e7,inactive
Acp53C14a,1,3.96e7,4.68e7,,1.70e7,2.48e7,inactive
Ass + CG31286,1,4.49e7,3.00e7,,2.21e7,1.50e7,inactive
Ptp10D,1,3.77e7,5.51e7,,1.89e7,2.37e7,inactive
CG8036,1,4.06e7,2.76e7,,2.03e7,1.34e7,inactive
CG33095,1,3.51e7,5.16e7,,1.83e7,2.48e7,inactive
RpL9,1,1.28e7,1.45e7,,8.73e6,9.37e6,inactive
Odc1,1,3.52e7,3.06e7,,1.54e7,1.54e7,inactive
mthl1,1,2.88e7,3.77e7,,1.52e7,1.72e7,inactive
beta4GalT7,1,4.63e7,6.65e7,,2.09e7,2.78e7,inactive
CG43901,1,3.54e7,5.30e7,,1.88e7,2.70e7,inactive
CG43901,2,2.66e7,4.43e7,,1.82e7,2.57e7,inactive
CG43901,3,4.53e7,4.44e7,,2.15e7,2.51e7,inactive
CG43901,4,3.99e7,3.40e7,,1.96e7,1.68e7,inactive
bocks,1,3.07e7,4.69e7,,1.36e7,1.96e7,inactive
Orc5,1,5.04e7,3.17e7,,2.17e7,1.50e7,inactive
CG3117,1,3.47e7,3.83e7,,1.71e7,1.78e7,inactive
CG31462 (retired record),1,3.58e7,2.85e7,,1.77e7,1.44e7,inactive
esn,1,2.02e7,3.15e7,,1.10e7,1.26e7,inactive
esn,2,4.89e7,3.97e7,,2.20e7,1.84e7,inactive
esn,3,4.58e7,4.46e7,,2.15e7,1.97e7,inactive
RpS3A,1,1.21e7,1.01e7,1.3,9.62e6,7.79e6,inactive
CG15822,1,2.78e7,3.89e7,,1.43e7,1.74e7,inactive
CG15822,2,2.97e7,3.48e7,,1.45e7,1.64e7,inactive
casp,1,3.49e7,3.45e7,,1.59e7,1.74e7,inactive
CG9993,1,5.37e7,4.29e7,,2.53e7,2.02e7,inactive
Mitofilin,1,3.24e7,2.95e7,,1.60e7,1.26e7,inactive
CG18269,1,3.13e7,2.91e7,,1.45e7,1.37e7,inactive
CG12506,1,2.60e7,2.61e7,,1.25e7,1.21e7,inactive
CG14346,1,3.70e7,4.07e7,,1.74e7,1.85e7,inactive
Eip75B,1,4.93e7,3.77e7,,2.28e7,1.99e7,inactive
Eip75B,2,4.69e7,6.27e7,,2.16e7,3.71e7,inactive
Eip75B,3,3.30e7,3.45e7,,1.71e7,1.61e7,inactive
